Laboratory results taken from patent publication US20020132328A1.
No constants are given. Whether binding was seen depends on the method and setting. Some binding calls cover weakened binding; strength is not graded here.

Chains of the proteins cited; added tags and fusions are not shown. Lines headed by an entry give the natural chain unless they say otherwise; changes in a name come on top.
UniProt O02776: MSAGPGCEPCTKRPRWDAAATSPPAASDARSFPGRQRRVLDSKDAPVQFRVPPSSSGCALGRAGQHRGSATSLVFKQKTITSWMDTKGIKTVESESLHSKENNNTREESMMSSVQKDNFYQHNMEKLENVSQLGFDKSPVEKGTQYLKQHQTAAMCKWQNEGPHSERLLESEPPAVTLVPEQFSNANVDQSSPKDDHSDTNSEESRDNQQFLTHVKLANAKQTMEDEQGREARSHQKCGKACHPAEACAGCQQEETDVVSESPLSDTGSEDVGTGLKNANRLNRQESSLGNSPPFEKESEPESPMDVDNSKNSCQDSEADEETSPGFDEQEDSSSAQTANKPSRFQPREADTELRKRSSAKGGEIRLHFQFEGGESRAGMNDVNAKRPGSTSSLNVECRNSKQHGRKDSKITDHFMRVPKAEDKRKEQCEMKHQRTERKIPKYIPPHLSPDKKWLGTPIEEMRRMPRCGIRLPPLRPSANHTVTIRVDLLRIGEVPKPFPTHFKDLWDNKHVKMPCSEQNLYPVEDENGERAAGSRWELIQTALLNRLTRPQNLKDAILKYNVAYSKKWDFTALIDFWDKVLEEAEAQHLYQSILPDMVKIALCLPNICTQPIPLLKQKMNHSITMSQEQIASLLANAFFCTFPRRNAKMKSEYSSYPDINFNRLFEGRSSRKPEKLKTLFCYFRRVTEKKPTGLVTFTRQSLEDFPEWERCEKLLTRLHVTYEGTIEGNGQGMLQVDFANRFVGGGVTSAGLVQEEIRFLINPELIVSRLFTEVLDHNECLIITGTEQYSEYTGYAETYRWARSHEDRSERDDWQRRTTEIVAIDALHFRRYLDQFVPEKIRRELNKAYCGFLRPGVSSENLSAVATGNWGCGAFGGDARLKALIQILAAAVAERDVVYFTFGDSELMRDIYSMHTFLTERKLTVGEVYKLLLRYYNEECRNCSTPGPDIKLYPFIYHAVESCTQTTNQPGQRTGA

Target: expressed PARG protein (bovine) (bovine) (UniProt O02776)
Test: SDS-PAGE, self-association

- binding: binds
Substance: expressed PARG protein (bovine) (from UniProt O02776 1-977) (enzyme)
